Experimental data published in PMC6738495.
These are yes or no findings as the source states them, for the method shown. In cells and extracts the contact can be indirect. A yes stands for co-enrichment or nearness to the bait. Other partners may have been found.

B1: ZIP6 (protein, UniProt Q8C145 21-765)
chain: LHELQSTAAFSQTTEKINSNWEPGVNVDLAVTMQRHHLQQLFYRYGENDSLSVEGFRKLLQNIGIDKIKRVHIHHDHEHHADHEHHSDHEHHSDHEHHSDHEHHSDHEHHSDHEHHSHRSHTVAGKNNRKAFCPDLDSDNSGKNPRTSLGKGSRPAEHMNGRRNIKESASSSEVTSAVYNAVSEGTRFVETIETPKPGRRTKDVNPSTPPSITEKSRVGRLSRLARKKSNESVSEPRKSFMYSRNTNDNIQECFNTTKLLTSHGMSIQALLNATEFNYLCPAIINQIDARACLIHTASEKKAEIPPKTYSLQIAWLGGFIAISIISFLSLLGVILVPLMNRVFFKFLLSFLVALAVGTLSGDALLHLLPHSHASHQHSHSHEEPAMEMKRGPLFSHLSAQNIEESSYFDSTWKGLTALGGLYFMFLVEHVLTLIKQFKDKKKKNQKKPENDEDVESKKQLSKYDSQLSSNEEKVDPGERPESYLRADSQEPSPFDSQQPTMLEEEEVMIAHAHPQEVYNEYVPRGCKNKCHSHFHDTLGQSDDLIHHHHDYHHILHHHHHQNHHPHSHSQRYSREELKDAGIATLAWMVIMGDGLHNFSDGLAIGAAFTEGLSSGLSTSVAVFCHELPHELGDFAVLLKAGMTVKQAVLYNALSAMLAYLGMATGIFIGHYAENVSMWIFALTAGLFMYVALVDMVPEMLHNDASDHGCSRWGYFFLQNAGILLGFGIMLLISIFEHKIVFRINF
B2: ZIP10 (protein, UniProt Q6P5F6 26-833)
chain: HEDHDHGPEELHRHHRGMTESESSKFSVQDAENEKKYYIEKLFDRYGENGRLSFFGLEKLLTNLGLGEIKVVEINHEDLGHDHVSHLDILAVQEGKHFHSHTHQHFHNHLNAENHTTTSVTSKRNHKCDPEKEAAELPIKADDKHLHDRNHRFHHRHRLHHHLDHNTTRHVHNDSVAHSEHGEPGHSPSPETNKTQEQSEVKSVKVRRKEKGKRKKENSEVNTPGFLPNHDHSEQYEHNRVHKLDRVHSPGHPHAHLPEHSGHELGHGHQELDPDNEGELRHTRKREAPHVRKSAIYSTPSHKDQSEDDRQHECLNVTQLLKHFGLGPNSPISPDLFTYLCPALLYQIDSRLCIEHFDKLLVEDLNKDKTLVPEDKTNIGASAWICGIISITVISLLSLLGVILVPIINQGCFKFLLTFLVALAVGTMSGDALLHLLPHSQGGHDHSHQHTHGHGHSHGHESKEFLEEYDAVLKGLVALGGIYLLFIIEHCIRMFKHYKQQRGKQKWFMKQSTEESTIGRKLSDHKLNSTPDADWLQLKPLAGTDDSVVSEDRLNETELTDLEAQQESPPKNYLGVEEEKIMDHSHSDGLHTIHEHEVHVTSHNHHDEDKAVLRKHSHQWHHRHAHHSHGPCHSGSDLKETGIANIAWMVIMGDGIHNFSDGLAIGAAFSAGLTGGISTSIAVFCHELPHELGDFAVLLKAGMTVKQAIVYNLLSAMMAYIGMLIGTAVGQYANNITLWIFAITAGMFLYVALVDMLPEMLHGDGDHEEHGFCPVGQFILQNLGLLFGFAIMLVIALYEDKIVFDIQF

Target: mouse PrP (MoPrP) (mouse (endogenous in C57Bl/6 brain)) (UniProt P04925)
Test: cross-linking + affinity purification with mass spectrometry

| Binder | binding |
| --- | --- |
| B1 | binds |
| B2 | binds |
